Data as given in PubChem BioAssay AID652259 (Drosophila RNAi Screening Center, 2013).
The screen tested about 22,000 reagents; below is an unselected part of those that have a named target and a result. Of all reagents, 233 (1.1%) were called active. 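Light values are raw, unnormalised plate reads; the ratio scores behind the reporter calls were not deposited.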 The record does not give: the amount of reagent, the time to read-out, the dose of the treatment.

- Assay: 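Knock-downs that push a Wingless-driven reporter up or down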 (primary screen)
- Cells: Drosophila clone 8 imaginal disc epithelial cells
- Knock-down reagent: long dsRNA against Drosophila genes
- Challenge: pathway stimulated by co-transfected Wingless expression plasmid
- Measured: 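Dual luciferase reads per well after Wingless plasmid stimulation: reporter firefly light and Renilla control light; activity is firefly divided by Renilla, a ratio not deposited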
- Scale: firefly reporter light: higher = more Wg reporter light, before normalisation; Renilla control light: higher = more transfected or surviving cells
- Active means: 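Strong candidates differ from their plate mean by at least two out of four per-plate statistical tests; weak candidates meet just one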
- Calls: active = candidate regulator (raises or lowers reporter); inactive = not a candidate

Silencing of CG13026 (GeneID 39868) [DRSC09906] came out at: firefly reporter light, replicate 1 = 8819; Renilla control light, replicate 1 = 3837; inactive.
For Ccdc114 (GeneID 42024) [DRSC15025] the deposit lists firefly reporter light, replicate 1 = 16248; Renilla control light, replicate 1 = 2539; inactive.
Cyp4s3 (GeneID 32444) [DRSC20241] scored firefly reporter light, replicate 1 = 29811; Renilla control light, replicate 1 = 14069; inactive.
Cyp4s3 (GeneID 32444) [DRSC22340] showed firefly reporter light, replicate 1 = 3.77e5; firefly reporter light, replicate 2 = 6.15e5; Renilla control light, replicate 1 = 1.36e5; Renilla control light, replicate 2 = 2.34e5; inactive.
robl62A (GeneID 38170) [DRSC08153] scored firefly reporter light, replicate 1 = 4312; Renilla control light, replicate 1 = 2608; inactive.

Only “Renilla control light, replicate 1” (2 entries from above):
Ccdc114 (GeneID 42024) [DRSC15025]: 2539
Cyp4s3 (GeneID 32444) [DRSC20241]: 14069

Additional entries follow:
For Bub3 (GeneID 43490) [DRSC14168] the deposit lists firefly reporter light, replicate 1 = 3673; firefly reporter light, replicate 2 = 6756; Renilla control light, replicate 1 = 1360; Renilla control light, replicate 2 = 2113; inactive.
CG10029 (GeneID 40883) [DRSC12498] gave firefly reporter light, replicate 1 = 19056; Renilla control light, replicate 1 = 7164; inactive.
Against Men-b (GeneID 43936) [DRSC16736], the entry reads firefly reporter light, replicate 1 = 6848; Renilla control light, replicate 1 = 1906; inactive.
For sbb (GeneID 44027) [DRSC05723] the deposit lists firefly reporter light, replicate 1 = 16614; Renilla control light, replicate 1 = 12653; inactive.
sbb (GeneID 44027) [DRSC07676] scored firefly reporter light, replicate 1 = 5115; Renilla control light, replicate 1 = 2649; inactive.
Oatp58Db (GeneID 37544) [DRSC04364] showed firefly reporter light, replicate 1 = 2198; firefly reporter light, replicate 2 = 7017; Renilla control light, replicate 1 = 613; Renilla control light, replicate 2 = 3158; inactive.
Against Ir48b (GeneID 36254) [DRSC06320], the values are firefly reporter light, replicate 1 = 6641; Renilla control light, replicate 1 = 2317; inactive.
